{"source": "patent US20100130725A1", "about": "“METHODS FOR CHARACTERIZING MOLECULES” (priority 2008, published 2010)", "system": "quiescent A431 cells", "assay": "Epic DMR two-step assay, antagonist mode: modulation of marker-induced DMR signals in quiescent A431 cells", "assay_type": "cell-based, human", "conditions": "10 μM, score +1 per 10% modulation", "description": "For biosensor cellular assays, molecule solutions were made by diluting the stored concentrated solutions with the HBSS (1× Hanks balanced salt solution, plus 20 mM Hepes, pH 7.1), and transferred into a 384 well polypropylene molecule storage plate to prepare a molecule source plate. Both molecule and marker source plates were made separately when a two-step assay was performed. In parallel, the cells were washed twice with the HBSS and maintained in 30 μl of the HBSS to prepare a cell assay plate. Both the cell assay plate and the molecule and marker source plate(s) were then incubated in the hotel of the reader system. After ˜1 hr of incubation the baseline wavelengths of all biosensors in the cell assay microplate were recorded and normalized to zero. Afterwards, a 2 to 10 minute continuous recording was carried out to establish a baseline, and to ensure that the cells reached a steady state. Cellular responses were then triggered by pipetting 10 μl of the marker solutions into the cell assay plate using the on-board liquid handler.\nNext, the target specificity and signaling pathway of EGF was probed using a second set of assays.\nA first panel of markers was contacted with quiescent A431 cells at concentrations close to each of the marker's EC80 or EC100, and DMR measurements were obtained with and EPIC® system. This panel of markers was selected from a library of markers identified in A431 cells using Epic® cellular assays. This panel included epidermal growth factor (EGF), epinephrine, nicotinic acid, and histamine. Each of these markers leads to a wide array of cell signaling. […] Each DMR signal represents an averaged response of 4 replicates.\nA DMR index was generated for four ligand molecules. Quiescent A431 and proliferating A549 cells were separately exposed to the ligand molecules for about 1 hr to generate their primary profiles, followed by stimulation with each marker at a fixed concentration (as mentioned in FIGS. 7 and 8) for another 1 hr or so to generate secondary profiles of the molecule against the panels of markers in both types of cells. Next, one or more specific DMR parameters were chosen as a readout for plotting the DMR index of the molecule. For the pinacidil DMR response in A549, the amplitude of the N-DMR (i.e., the amplitude 30 min after stimulation) was chosen. For the poly(I:C) DMR response in A549, the amplitude of the late DMR (i.e., the amplitude 50 min after stimulation) was chosen. For the PMA response in A549, the late DMR amplitude (i.e., the amplitude 50 min after stimulation) was chosen."}
{"smiles": "CNCCNS(=O)(=O)c1cccc2cnccc12", "note": "[H8]", "values": [{"measurement": "modulation index score, EGF (N-DMR)", "value": "−2"}, {"measurement": "modulation index score, EGF (P-DMR)", "value": 0.3}, {"measurement": "modulation index score, epinephrine", "value": "−1.6"}, {"measurement": "modulation index score, histamine", "value": 1.6}, {"measurement": "modulation index score, nicotinic acid", "value": 1}]}
